Experimental data as given in patent US7928099B2, “Pyrimido [4,5-D] azepine derivatives as 5-HT2c agonists” (Pfizer Inc, priority 2007, dated 2011).
pEC50: −log10 of the molar value. The structures given here were assigned with low confidence; some may be wrong.

Protein sequences, listed by entry. Tags and fused reporters are not part of them. Residues count along the entry.
UniProt P28335, 33-458 limits assumed: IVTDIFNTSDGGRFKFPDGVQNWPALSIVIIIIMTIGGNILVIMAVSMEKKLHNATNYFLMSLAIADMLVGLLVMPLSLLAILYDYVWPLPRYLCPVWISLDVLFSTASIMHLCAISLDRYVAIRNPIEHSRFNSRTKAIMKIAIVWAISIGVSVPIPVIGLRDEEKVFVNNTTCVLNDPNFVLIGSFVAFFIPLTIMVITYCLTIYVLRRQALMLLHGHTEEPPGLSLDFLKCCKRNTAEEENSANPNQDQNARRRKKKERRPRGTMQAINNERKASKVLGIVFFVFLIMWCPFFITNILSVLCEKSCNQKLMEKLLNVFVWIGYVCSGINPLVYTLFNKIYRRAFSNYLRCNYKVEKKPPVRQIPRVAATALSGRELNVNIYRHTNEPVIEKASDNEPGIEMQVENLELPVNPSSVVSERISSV

Molecular target: human recombinant 5-HT2c receptor (Homo sapiens, UniProt P28335)
Test: FLIPR fluorescent Ca2+ mobilisation agonist assay in CHO K1 cells (Method 1)
Assay type: cell-based
Conditions: tested form: TFA

SMILES: COc1ccc(COc2nc(Cc3ccccc3)nc3c2CCNCC3)cc1
- pEC50 (agonist affinity, FLIPR): 6.27
- Emax % (efficacy, percentage of mean maximal response to 10 μM 5-HT): 82.3%
